The text below walks through data of PubChem BioAssay (NCATS).

The chains behind the UniProt entries cited, without tags or fusion partners. Where a name states a change or a piece, a line headed by the entry shows the natural chain unless it says otherwise.
UniProt P50135: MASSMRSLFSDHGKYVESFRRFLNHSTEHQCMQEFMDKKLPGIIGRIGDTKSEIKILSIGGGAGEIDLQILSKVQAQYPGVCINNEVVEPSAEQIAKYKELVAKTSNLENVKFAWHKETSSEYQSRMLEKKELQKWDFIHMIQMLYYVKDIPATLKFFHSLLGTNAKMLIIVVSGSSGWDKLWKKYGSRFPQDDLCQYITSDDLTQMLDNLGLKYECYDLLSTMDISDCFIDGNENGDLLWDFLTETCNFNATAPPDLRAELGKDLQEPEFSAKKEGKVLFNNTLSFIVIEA
UniProt P40261: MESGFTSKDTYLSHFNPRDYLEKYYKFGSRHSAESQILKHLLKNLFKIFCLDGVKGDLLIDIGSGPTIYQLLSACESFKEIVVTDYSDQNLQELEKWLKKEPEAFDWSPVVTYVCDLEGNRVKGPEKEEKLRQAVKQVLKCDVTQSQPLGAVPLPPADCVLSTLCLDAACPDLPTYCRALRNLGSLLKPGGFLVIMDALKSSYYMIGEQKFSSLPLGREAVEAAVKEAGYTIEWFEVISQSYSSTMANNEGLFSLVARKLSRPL
UniProt P11086: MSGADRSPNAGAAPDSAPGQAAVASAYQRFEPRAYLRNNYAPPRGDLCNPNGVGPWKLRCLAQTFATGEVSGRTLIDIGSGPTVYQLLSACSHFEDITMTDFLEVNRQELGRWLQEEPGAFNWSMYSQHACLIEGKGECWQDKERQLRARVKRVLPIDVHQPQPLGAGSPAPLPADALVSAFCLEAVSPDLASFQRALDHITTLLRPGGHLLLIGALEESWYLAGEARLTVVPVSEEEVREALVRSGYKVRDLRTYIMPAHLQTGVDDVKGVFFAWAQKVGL
UniProt P21964: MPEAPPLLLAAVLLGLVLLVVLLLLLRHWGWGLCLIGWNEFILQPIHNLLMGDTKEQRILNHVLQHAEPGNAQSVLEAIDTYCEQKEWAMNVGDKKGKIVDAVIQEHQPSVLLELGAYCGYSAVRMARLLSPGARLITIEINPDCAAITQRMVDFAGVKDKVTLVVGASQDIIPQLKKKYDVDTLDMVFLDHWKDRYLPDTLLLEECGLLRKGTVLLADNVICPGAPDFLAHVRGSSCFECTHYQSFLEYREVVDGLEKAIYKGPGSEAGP

Each structure is given as a SMILES string. Values joined by “and” are separate entries in the source; they are usually repeats but may differ in a detail not shown here. Identical values can stand only once. Some of the results follow. These are further read-outs of the screen, such as a control signal, another cell line or another target. No call is given for them. For part of these data: Most of these compounds were active or inconclusive in the main read-out, so they are no random draw. For part of these data: The note in brackets gives the kind of curve behind each potency; many fits are weak.

Test [1] in a line: S16 Schwann cell PMP22 intronic element beta-lactamase assay (AID 624044). Particulars: S16 rat Schwann cells, PMP22 element beta-lactamase FRET, 24 h; measured here: 460 nm blue channel. In short, it runs like this: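 Beta-lactamase reporter under a PMP22 intronic regulatory element in stable S16 rat Schwann cells; 24 h compound exposure. 460 nm blue signal normalized between DMSO (0%) and potassium clavulanate, with 535 nm FRET tracking viability; curves classed by r2 and response.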

The nature of test [2]: A High-Content qHTS Against Drug Library for the Identification of Small Molecules that Inhibit DYT1 Early Onset Primary Dystonia-Associated Cell Pathology (AID 1645839). Particulars: HEK293 Flp-In EGFP-delE TorsinA, punctate imaging, 48 h; measured here: cell count cytotoxicity. In short, it runs like this: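 Induced EGFP-delE TorsinA cells are imaged after 48 h of compound treatment. Punctate fusion-protein distribution gives the %pathology value, while nuclei counts flag toxicity. Wild-type EGFP-hTOR1A cells define the normal pattern.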

A short description of test [3]: qHTS drug screen for cell cycle checkpoint inhibitors in PARPi-resistant BRCA-mutant ovarian cancer cell lines. (AID 1963452). The following applies: PEO1/OlaR viability, CellTiter-Glo luminescence, 96 h. In short, it runs like this:
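PEO1, PEO4 and PEO1/OlaR ovarian cancer cells, 600 per well, exposed 96 h at 37C to a dilution series. Viability read by CellTiter-Glo luminescence, normalized to DMSO and empty wells; activity summarized as Z-AUC.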
(qHTS replaces the single test concentration by a dilution series.)

Test [4] in a line: qHTS for identification of novel therapeutic agents for treatment of microphthalmiaassociated transcription factor (MiT) renal cell carcinoma (RCC) (AID 1963991). The following applies: CellTiter-Glo, 48 h; for z-score: stronger effect = lower value. In short, it runs like this:
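Three TFE3-fusion RCC cell lines (UOK109, UOK124, UOK145), 500 cells/well, were exposed to the 1912-compound MIPE 4.0 library for 48 hours at 37 C. Viability was read by CellTiter-Glo luminescence, normalised to DMSO (100%) and empty wells (0%), with 11-concentration curve fits.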

The nature of test [5]: qHTS assay for small molecule agonists of retinoid X receptor alpha signaling (AID 588544). The following applies: HEK293T RXRa-UAS-bla, beta-lactamase reporter, 18 h; 530 nm emission.
A short description of test [6]: qHTS assay for small molecule antagonists of retinoid X receptor alpha signaling (AID 588546).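 Further: cells stimulated with 9-cis-retinoic acid as agonist; on the % scale 0 is the no-effect control and ±100 the full control effect.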 Particulars: HEK293T RXRa-UAS-bla, beta-lactamase ratio, antagonist mode; measured here: W530 green channel, cytotoxicity proxy. In short, it runs like this: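 Beta-lactamase reporter inhibition, read as CCF4 fluorescence ratio (ex 405, em 460/530 nm) after 2 h at RT. HEK293T UAS-bla cells, 2500/well, were stimulated with 9-cis-RA at 500 or 100 nM final alongside test compound for 18 h at 37 C.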

In test [7] the target is Histamine N-methyltransferase (Homo sapiens) (UniProt P50135). Description: Confirmatory Screen for Target Class Profiling of Small Molecule Inhibitors of Methyltransferases (AID 1745852). Particulars: MTase-Glo luminescence, SAH detection, recombinant enzyme; measured here: HNMT inhibition potency.
The target of test [8] is Nicotinamide N-methyltransferase (Homo sapiens) (UniProt P40261). The description is as above. Particulars: MTase-Glo luminescence, SAH detection, recombinant enzyme; measured here: NNMT inhibition potency.
Test [9] concerns the target Phenylethanolamine N-methyltransferase (Homo sapiens) (UniProt P11086). The description is as above. Particulars: MTase-Glo luminescence, SAH detection, recombinant enzyme; measured here: PNMT inhibition potency.
The target in test [10] is Catechol O-methyltransferase (Homo sapiens) (UniProt P21964). Described as above. The following applies: MTase-Glo luminescence, SAH detection, recombinant enzyme; measured here: COMT inhibition potency.
Test [11] in a line: NCATS anti-infectives library activity on the primary C. elegans qHTS viability assay (AID 1745855). The following applies: C. elegans worm area imaging. Summed up: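 Titration-based screen in worms: eggs hatched overnight in M9, L1 larvae fed TOP10 capsules in S medium with compound, incubated 21 °C for 7 days; fluorescent objects gated by size and intensity at days 0, 3 and 7.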

Test [12] in a line: qHTS Validation Assay to Find Inhibitors of Chronic Active B-Cell Receptor Signaling (AID 485345). Particulars: ABC-DLBCL cells, chronic BCR signaling reporter; measured here: CBR control luciferase (viability counter). In short, it runs like this:
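TMD8 ABC-DLBCL cells with dox-inducible green luciferase–IκBα fusion and red native luciferase; compounds 46 uM–3 nM, 4 h at 37C with doxycycline in 0.5% FBS IMDM. Green/red ratio normalized to basal and 10 uM MG-132.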

The mark [13] stands for this setting: measured here: PEO1 parental viability.
Setting [14] is: TFE3-RCC UOK109 viability, measured here: UOK109 Z-AUC.
Where [15] appears, read: TFE3-RCC viability, measured here: UOK124 Z-AUC.
The mark [16] stands for this setting: TFE3-RCC viability, measured here: UOK124 cell viability.
Where [17] appears, read: TFE3-RCC viability, measured here: UOK145 Z-AUC.
The mark [18] stands for this setting: TFE3-RCC viability, measured here: UOK145 cell viability.
[19] abbreviates: day 7, measured here: worm number.
The mark [20] stands for this setting: day 7, measured here: worm area, day 3.

Consider `Oc1c(Cl)cc(Cl)c2cccnc12`, for which the AC50 – broadly, the midpoint of the concentration-response curve, whichever way the signal moves – in test [1] was 17.8 µM [falling, partial curve]; in [2] it was 5.62 µM [falling, full curve, poor fit]; in test [3] (setting [13]) it was 13.8 µM [falling, single point]; in [3] (measured here: PEO4 viability), 13.8 µM [falling, partial curve]; in test [4] (setting [16]) it was 13.2 µM [falling, partial curve]; in test [4] (setting [18]), 18.7 µM [falling, partial curve]. For the same molecule, the z-score in test [4] (setting [14]) was 0.499; in test [4] (setting [15]), -0.0712; in test [4] (setting [17]), 0.484.
Regarding `CC/C(=C(/CC)c1ccc(O)cc1)c1ccc(O)cc1`, the max response is 26.8% in test [5]; 12.1% and -21.9% in [6]. The AC50 in test [2] was 1 µM [falling, full curve, poor fit]; in test [3] (setting [13]), 21.9 µM [falling, single point]; in test [3] (measured here: PEO4 viability) it was 24.5 µM [falling, single point].
In the case of `Cc1cc(C(C#N)c2ccc(Cl)cc2)c(Cl)cc1NC(=O)c1cc(I)cc(I)c1O` (configuration not stated), the AC50 in test [2] is 5.01 µM [falling, full curve, poor fit]. Further, the IC50 – broadly, the point on the concentration scale where inhibition reaches its midpoint – was 42.9 µM [falling, single point] in [7]; 24.1 µM [falling, partial curve] in [8]; 30.4 µM [falling, partial curve] in test [9].
For the molecule `Cc1c(C(=O)NN2CCCCC2)nn(-c2ccc(Cl)cc2Cl)c1-c1ccc(Cl)cc1`, the AC50 in [2] is 17.8 µM [falling, partial curve, poor fit]; in test [3] (setting [13]), 15.5 µM [falling, partial curve, poor fit]; in test [3] (measured here: PEO4 viability), 13.8 µM [falling, partial curve, poor fit]; in test [4] (setting [16]), 33.2 µM [falling, single point]; in [4] (setting [18]), 23.5 µM [falling, partial curve]. In addition, the z-score in [4] (setting [14]) turned out to be 0.298; in test [4] (setting [15]) it was 0.701; in test [4] (setting [17]) it was 0.325.
In the case of `Cc1nc(Nc2ncc(C(=O)Nc3c(C)cccc3Cl)s2)cc(N2CCN(CCO)CC2)n1`, the AC50 in [1] was 6.31 µM [falling, partial curve, poor fit]; in test [2], 1.12 µM [falling, full curve]; in test [11] (setting [19]), 0.365 µM [falling, partial curve, poor fit]; in [11] (setting [20]), 0.0058 µM [falling, full curve, poor fit]; in test [11] (day 7, measured here: worm number, day 3) it was 0.916 µM [falling, partial curve, poor fit]; in test [3] (setting [13]), 21.9 µM [falling, single point]. Further, the AC50 was 19.5 µM [falling, partial curve] in test [3] (measured here: PEO4 viability) and 0.0132 µM [falling, full curve] in [4] (setting [18]). In addition, the IC50 in [10] was 24.1 µM [falling, partial curve]; in test [7], 24.1 µM [falling, partial curve]; in [8], 24.1 µM [falling, partial curve]; in [9], 24.1 µM [falling, partial curve]. Also, the results for the z-score in test [4] (setting [14]), in test [4] (setting [15]) and in [4] (setting [17]) were -3.72, -1.9 and -2.81, respectively.
`O[C@@H](c1cc(C(F)(F)F)nc2c(C(F)(F)F)cccc12)[C@H]1CCCCN1`: the AC50 in test [1] was 25.1 µM [falling, single point]; in test [2] it was 2.82 µM [falling, full curve]; in test [11] (setting [19]), 16.3 µM [falling, partial curve, poor fit]; in test [11] (setting [20]), 25.8 µM [falling, single point].
With `CN(C)C(=O)C(CCN1CCC(O)(c2ccc(Cl)cc2)CC1)(c1ccccc1)c1ccccc1`, the AC50 is 35.5 µM [falling, single point] in test [2]; 21.9 µM [falling, single point] in test [3] (setting [13]); 15.5 µM [falling, single point] in test [3] (measured here: PEO4 viability); 16.6 µM [falling, partial curve] in test [4] (setting [16]); 23.5 µM [falling, partial curve] in test [4] (setting [18]). Besides, the IC50 in test [8] was 34.3 µM [falling, single point]. For the same molecule, the values for the z-score in test [4] (setting [14]), in test [4] (setting [15]) and in [4] (setting [17]) were 0.561, -0.279 and 0.0704, respectively.
`Cc1cc2c(C(C)C)c(O)c(O)c(C=O)c2c(O)c1-c1c(C)cc2c(C(C)C)c(O)c(O)c(C=O)c2c1O`: the AC50 in [12] was 25.9 µM [falling, single point]; in [2], 1 µM [falling, full curve, poor fit]; in [3] (setting [13]) it was 24.5 µM [falling, single point]; in [3] (measured here: PEO4 viability), 27.5 µM [falling, single point]; in [4] (setting [16]) it was 20.9 µM [falling, partial curve]; in test [4] (setting [18]) it was 29.6 µM [falling, single point]. In [5], the max response is -49.6%. In addition, the z-score in [4] (setting [14]) was 0.0522; in [4] (setting [15]), 0.157; in test [4] (setting [17]), -0.12.
Take `Clc1ccc(C(Cn2ccnc2)OCc2c(Cl)cccc2Cl)c(Cl)c1` (configuration not stated): the AC50 in [2] is 35.5 µM [falling, single point]; in test [3] (setting [13]), 17.4 µM [falling, single point]; in test [3] (measured here: PEO4 viability), 17.4 µM [falling, single point]; in test [4] (setting [16]), 37.2 µM [falling, single point]. Also, the IC50 in [8] is 21.5 µM [falling, partial curve]. Also, the results for the z-score in [4] (setting [14]), in test [4] (setting [15]) and in test [4] (setting [17]) were -0.111, 0.193 and 0.907, respectively.
